Experimental data as given in publication PMC7912637.
These are yes or no findings as the source states them, for the method shown. In cells and extracts the contact can be indirect. Some binding calls cover weakened binding; strength is not graded here.

Sequences of proteins named here, by UniProt entry; tags and fusion partners are left off.
UniProt P22366: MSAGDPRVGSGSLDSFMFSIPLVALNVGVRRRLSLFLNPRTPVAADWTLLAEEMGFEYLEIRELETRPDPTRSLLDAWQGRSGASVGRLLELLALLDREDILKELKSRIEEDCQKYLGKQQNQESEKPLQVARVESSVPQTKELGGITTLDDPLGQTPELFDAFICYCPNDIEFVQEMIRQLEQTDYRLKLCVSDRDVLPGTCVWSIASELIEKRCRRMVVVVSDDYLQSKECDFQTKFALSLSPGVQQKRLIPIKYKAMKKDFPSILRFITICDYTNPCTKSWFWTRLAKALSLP

Target: T1, interleukin-1 receptor associated kinase 4 (mouse (endogenous in SIM-A9)) (UniProt Q8R4K2)
T1 sequence: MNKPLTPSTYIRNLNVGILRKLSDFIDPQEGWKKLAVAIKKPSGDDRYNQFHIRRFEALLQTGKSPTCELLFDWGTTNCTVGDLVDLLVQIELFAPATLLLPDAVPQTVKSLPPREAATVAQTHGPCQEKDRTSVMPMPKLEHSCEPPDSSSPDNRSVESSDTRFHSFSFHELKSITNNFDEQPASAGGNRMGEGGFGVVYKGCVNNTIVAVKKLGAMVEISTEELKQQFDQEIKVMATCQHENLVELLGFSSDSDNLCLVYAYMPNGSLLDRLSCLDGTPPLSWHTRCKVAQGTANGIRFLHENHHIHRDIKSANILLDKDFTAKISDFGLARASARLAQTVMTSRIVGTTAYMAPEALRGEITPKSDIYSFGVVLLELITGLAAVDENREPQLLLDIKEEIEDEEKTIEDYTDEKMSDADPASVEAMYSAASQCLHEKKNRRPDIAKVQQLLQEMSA
Assay: co-IP; SIM-A9 cell homogenates (normoxia control, 4 h OGD, OGD + LPS or OGD + IL-4, 24 h after stimulation); 15 ug anti-IRAK4 or anti-MyD88 antibody or IgG control added to crude protein (0.5-1 mg/mL) in PBST, protein G PLUS-Agarose, 4 °C; Western blot

binding: binds
Substance: MyD88 (from UniProt P22366 1-296)
